doi:10.1101/452904 (bioRxiv, 2018)
No constants are given. Whether binding was seen depends on the method and setting. Some entries that bind do so weakly or less than the wild type. Tags and fused reporters may be left off the sequences shown. Each block holds one molecule with its values, some of them ahead of it.

Sequences of proteins named here, by UniProt entry; tags and fusion partners are left off.
UniProt Q15436: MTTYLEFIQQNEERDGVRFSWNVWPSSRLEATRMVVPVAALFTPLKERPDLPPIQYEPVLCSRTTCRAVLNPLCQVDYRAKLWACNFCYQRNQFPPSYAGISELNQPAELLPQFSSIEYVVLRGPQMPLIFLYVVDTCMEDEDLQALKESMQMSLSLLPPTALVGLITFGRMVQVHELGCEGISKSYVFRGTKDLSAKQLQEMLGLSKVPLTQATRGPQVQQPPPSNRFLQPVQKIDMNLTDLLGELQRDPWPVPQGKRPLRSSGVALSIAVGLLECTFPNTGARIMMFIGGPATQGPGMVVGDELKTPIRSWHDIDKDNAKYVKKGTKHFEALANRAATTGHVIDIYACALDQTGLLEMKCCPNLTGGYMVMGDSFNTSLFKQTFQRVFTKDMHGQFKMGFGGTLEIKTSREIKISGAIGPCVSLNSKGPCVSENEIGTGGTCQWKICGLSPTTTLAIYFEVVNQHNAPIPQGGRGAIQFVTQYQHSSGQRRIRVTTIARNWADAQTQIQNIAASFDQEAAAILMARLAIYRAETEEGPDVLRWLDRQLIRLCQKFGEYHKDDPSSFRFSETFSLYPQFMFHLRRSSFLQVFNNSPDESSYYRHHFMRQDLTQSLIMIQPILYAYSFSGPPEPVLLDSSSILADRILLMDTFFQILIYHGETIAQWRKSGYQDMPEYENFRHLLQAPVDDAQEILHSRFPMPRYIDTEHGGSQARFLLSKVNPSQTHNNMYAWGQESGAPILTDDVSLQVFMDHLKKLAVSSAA

How the values were obtained:
FLAG-Sec24D (human) [1] = molecular target: T1, FLAG-Sec24D (human) (UniProt O94855); experiment: co-purification on FLAG affinity beads
T1 sequence: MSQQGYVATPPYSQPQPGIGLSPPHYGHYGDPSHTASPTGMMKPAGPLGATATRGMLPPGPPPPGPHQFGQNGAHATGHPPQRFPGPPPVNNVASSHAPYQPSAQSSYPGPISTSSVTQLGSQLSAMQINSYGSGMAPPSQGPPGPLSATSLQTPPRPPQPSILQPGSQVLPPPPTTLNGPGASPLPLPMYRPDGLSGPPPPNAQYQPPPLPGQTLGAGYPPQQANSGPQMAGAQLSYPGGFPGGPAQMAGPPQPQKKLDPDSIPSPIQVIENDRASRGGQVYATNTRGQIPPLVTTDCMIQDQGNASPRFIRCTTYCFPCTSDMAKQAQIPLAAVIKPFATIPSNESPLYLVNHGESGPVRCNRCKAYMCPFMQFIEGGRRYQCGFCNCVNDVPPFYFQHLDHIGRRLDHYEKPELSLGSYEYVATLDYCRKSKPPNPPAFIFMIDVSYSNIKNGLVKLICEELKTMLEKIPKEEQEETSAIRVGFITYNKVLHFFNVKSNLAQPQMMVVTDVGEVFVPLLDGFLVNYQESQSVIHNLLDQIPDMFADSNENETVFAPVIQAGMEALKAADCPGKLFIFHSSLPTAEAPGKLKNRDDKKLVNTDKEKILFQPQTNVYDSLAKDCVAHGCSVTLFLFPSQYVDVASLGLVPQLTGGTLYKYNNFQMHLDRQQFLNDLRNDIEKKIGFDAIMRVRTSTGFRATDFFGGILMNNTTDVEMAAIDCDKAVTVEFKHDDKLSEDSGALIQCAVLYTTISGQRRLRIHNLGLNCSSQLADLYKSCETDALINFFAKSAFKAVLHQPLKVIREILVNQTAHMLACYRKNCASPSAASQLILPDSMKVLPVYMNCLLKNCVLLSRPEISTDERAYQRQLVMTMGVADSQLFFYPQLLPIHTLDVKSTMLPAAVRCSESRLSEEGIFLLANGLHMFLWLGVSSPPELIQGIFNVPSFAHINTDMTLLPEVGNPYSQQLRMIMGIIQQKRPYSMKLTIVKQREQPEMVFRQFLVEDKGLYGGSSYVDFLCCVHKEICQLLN

FLAG-Sec24D (human) [2] = molecular target: T1, FLAG-Sec24D (human); experiment: pull-down

binding (FLAG-Sec24D (human) [1]): binds
Molecule: HA-Sec23A (from UniProt Q15436 1-765)

binding (FLAG-Sec24D (human) [2]): no binding
B1: GST-tagged TANGO1-PRD (1651–1907 aa)-His6 (domain or fragment)
chain: NTQNPPRRGPLSQNGSFGPSPVSGGECSPPLTVEPPVRPLSATLNRRDMPRSEFGSVDGPLPHPRWSAEASGKPSPSDPGSGTATMMNSSSRGSSPTRVLDEGKVNMAPKGPPPFPGVPLMSTPMGGPVPPPIRYGPPPQLCGPFGPRPLPPPFGPGMRPPLGLREFAPGVPPGRRDLPLHPRGFLPGHAPFRPLGSLGPREYFIPGTRLPPPTHGPQEYPPPPAVRDLLPSGSRDEPPPASQSTSQDCSQALKQSP
